Laboratory results reported in the supplement of paper PMC10849652.
The list shows a part of the results.

Amino acid sequences for entries named in this document (tags omitted). A change or cut given only in a name is not applied to a line headed by its entry.
UniProt P57678: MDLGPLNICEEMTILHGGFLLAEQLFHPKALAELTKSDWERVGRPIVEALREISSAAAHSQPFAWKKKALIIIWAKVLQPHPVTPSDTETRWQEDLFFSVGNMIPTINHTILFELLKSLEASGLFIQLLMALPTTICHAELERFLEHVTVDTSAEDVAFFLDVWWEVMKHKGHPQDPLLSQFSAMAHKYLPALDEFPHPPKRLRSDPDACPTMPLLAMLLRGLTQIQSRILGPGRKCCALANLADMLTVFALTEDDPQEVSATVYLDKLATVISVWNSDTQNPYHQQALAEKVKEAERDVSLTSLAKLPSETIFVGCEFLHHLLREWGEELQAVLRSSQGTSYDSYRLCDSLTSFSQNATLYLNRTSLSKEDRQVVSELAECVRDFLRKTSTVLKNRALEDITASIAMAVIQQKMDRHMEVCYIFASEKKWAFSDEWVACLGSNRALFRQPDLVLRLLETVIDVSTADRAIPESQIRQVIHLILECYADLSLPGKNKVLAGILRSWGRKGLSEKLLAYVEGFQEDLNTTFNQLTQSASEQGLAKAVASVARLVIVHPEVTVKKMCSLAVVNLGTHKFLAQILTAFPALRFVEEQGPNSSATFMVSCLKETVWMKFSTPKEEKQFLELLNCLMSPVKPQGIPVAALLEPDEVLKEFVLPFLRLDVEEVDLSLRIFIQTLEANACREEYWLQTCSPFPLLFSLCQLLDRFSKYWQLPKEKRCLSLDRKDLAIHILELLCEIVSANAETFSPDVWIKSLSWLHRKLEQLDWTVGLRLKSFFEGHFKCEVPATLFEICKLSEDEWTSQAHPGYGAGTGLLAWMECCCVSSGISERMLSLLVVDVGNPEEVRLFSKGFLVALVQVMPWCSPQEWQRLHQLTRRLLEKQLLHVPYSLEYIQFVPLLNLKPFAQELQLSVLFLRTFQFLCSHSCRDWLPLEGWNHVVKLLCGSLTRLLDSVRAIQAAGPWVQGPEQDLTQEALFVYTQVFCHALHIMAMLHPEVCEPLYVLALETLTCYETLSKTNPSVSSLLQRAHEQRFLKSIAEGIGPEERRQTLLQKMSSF
UniProt Q16595: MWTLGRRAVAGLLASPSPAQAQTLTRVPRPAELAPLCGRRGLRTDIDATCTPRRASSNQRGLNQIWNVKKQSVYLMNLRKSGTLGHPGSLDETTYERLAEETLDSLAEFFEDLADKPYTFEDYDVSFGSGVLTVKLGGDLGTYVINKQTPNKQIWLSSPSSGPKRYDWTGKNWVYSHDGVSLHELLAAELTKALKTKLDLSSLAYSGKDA
UniProt Q6ZNA5: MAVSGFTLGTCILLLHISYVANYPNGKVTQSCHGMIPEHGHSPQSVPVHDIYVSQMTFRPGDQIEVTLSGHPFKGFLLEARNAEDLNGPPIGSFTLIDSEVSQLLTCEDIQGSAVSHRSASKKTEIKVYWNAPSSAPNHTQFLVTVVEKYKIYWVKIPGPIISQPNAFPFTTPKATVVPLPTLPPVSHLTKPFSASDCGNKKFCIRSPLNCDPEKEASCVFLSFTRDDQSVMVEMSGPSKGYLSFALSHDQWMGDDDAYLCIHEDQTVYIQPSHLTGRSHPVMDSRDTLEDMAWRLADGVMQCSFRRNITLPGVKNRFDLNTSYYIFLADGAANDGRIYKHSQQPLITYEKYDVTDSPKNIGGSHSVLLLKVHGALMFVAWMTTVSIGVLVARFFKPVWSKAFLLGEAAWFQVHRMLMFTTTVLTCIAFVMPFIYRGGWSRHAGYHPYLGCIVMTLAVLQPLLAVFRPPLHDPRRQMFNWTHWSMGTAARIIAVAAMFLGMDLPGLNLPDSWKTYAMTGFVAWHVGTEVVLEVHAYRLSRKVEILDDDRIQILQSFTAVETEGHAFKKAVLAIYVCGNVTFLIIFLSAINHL
UniProt O95749: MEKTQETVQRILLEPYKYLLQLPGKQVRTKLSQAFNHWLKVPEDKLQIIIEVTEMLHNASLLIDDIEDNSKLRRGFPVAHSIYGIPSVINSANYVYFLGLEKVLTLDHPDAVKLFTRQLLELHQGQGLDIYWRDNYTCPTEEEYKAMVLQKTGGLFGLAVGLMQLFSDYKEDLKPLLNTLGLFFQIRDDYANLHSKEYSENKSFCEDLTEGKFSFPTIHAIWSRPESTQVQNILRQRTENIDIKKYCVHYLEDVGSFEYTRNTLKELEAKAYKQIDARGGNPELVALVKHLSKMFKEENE
UniProt Q92820: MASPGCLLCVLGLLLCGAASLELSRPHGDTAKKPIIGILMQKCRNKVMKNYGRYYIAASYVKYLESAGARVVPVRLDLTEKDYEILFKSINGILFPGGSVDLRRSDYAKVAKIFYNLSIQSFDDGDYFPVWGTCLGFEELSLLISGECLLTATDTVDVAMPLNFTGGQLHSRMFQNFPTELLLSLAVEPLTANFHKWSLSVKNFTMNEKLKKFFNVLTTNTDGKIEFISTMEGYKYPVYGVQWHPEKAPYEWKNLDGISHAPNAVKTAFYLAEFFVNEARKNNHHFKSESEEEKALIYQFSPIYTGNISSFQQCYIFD
UniProt P48506: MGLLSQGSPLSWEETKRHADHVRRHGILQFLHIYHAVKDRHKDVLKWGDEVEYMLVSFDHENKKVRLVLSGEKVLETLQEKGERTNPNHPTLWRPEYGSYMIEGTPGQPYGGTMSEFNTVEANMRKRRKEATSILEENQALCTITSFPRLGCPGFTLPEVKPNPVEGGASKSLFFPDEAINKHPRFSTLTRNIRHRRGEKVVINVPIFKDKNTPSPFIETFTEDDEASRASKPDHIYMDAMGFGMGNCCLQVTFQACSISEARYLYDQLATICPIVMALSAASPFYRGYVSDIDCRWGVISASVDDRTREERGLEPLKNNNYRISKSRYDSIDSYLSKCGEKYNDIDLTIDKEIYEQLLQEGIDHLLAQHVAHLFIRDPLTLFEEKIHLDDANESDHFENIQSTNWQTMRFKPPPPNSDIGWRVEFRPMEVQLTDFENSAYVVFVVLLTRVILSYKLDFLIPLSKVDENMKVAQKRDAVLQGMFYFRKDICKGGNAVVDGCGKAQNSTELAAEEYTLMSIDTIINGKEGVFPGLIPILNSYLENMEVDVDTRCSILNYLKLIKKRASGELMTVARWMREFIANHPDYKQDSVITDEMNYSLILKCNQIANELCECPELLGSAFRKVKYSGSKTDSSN
UniProt P30047: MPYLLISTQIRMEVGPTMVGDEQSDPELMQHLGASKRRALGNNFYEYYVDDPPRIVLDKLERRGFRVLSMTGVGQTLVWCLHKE
UniProt Q13283, whole entry, looked up: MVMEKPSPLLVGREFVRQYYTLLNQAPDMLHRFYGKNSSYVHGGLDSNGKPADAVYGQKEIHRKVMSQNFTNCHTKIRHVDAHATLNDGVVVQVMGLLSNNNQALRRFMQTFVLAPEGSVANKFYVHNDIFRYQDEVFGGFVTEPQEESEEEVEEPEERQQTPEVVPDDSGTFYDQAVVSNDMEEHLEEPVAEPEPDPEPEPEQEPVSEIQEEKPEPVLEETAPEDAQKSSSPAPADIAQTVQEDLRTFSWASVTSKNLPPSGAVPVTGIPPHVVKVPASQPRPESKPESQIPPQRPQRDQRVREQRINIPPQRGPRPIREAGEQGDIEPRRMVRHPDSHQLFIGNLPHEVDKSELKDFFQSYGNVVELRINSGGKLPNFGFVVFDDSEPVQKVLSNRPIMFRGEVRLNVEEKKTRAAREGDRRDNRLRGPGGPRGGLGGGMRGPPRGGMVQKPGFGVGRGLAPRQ
UniProt Q14697: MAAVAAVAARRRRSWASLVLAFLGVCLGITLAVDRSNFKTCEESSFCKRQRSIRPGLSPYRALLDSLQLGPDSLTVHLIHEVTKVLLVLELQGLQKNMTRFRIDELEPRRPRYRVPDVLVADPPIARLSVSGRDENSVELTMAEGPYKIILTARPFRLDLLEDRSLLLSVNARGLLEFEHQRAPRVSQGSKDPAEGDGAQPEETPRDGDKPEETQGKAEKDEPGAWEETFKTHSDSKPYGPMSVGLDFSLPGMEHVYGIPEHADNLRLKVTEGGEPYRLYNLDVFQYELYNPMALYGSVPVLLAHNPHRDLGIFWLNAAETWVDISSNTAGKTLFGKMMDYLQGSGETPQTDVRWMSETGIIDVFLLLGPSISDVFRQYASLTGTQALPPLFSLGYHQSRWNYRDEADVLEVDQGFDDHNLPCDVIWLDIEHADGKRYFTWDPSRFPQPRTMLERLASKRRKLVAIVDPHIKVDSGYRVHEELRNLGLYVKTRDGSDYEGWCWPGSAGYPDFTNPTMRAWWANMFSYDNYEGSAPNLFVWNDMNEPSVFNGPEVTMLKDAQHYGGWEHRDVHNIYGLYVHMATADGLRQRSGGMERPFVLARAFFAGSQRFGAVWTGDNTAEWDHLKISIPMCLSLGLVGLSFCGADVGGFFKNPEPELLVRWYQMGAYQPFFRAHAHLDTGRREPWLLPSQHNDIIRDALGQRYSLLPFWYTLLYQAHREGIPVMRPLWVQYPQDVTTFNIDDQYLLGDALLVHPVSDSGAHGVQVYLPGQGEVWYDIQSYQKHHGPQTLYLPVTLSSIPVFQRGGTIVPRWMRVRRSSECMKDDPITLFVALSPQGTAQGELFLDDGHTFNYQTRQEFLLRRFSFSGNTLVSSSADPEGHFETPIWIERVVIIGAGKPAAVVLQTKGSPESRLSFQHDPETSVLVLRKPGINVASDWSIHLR
UniProt P38435: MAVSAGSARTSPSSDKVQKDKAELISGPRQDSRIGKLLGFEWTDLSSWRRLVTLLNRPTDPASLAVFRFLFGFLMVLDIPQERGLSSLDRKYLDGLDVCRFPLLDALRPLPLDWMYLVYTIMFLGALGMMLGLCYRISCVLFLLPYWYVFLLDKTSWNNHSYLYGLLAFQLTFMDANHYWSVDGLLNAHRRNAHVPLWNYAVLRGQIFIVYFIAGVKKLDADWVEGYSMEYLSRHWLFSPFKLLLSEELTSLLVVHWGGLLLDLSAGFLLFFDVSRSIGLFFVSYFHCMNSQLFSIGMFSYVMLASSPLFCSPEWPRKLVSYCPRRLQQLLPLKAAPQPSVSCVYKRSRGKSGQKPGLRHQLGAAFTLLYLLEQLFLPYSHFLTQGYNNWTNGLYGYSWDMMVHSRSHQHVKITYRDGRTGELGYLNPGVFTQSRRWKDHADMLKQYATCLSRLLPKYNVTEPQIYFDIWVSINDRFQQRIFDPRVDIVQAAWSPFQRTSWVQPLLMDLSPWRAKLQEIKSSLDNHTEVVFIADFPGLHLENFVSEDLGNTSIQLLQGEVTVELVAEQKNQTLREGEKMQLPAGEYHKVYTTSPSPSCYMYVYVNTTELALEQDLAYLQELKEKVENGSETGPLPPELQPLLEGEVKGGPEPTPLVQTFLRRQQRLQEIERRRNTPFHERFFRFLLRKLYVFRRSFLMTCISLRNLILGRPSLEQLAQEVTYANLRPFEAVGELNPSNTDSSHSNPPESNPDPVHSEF
UniProt Q9NZ52: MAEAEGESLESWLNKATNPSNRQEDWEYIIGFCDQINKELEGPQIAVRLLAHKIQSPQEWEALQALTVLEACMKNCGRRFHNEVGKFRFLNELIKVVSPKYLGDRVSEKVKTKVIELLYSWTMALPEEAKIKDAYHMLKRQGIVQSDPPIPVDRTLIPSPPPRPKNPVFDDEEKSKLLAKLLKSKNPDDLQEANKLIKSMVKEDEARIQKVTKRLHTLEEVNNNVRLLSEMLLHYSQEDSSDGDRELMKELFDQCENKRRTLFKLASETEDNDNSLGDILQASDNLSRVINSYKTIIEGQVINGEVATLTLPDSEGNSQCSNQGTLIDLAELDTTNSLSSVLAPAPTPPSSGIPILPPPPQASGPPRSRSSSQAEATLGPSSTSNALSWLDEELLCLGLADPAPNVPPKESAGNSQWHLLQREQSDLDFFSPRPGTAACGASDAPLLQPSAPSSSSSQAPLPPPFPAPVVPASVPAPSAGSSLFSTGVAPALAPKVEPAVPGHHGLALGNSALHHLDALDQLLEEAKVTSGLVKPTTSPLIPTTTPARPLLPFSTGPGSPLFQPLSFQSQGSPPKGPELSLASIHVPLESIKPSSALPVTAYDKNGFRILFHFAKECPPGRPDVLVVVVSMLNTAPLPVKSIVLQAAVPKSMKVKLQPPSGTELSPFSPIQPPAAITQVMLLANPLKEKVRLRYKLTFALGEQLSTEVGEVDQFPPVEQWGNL
UniProt P55789: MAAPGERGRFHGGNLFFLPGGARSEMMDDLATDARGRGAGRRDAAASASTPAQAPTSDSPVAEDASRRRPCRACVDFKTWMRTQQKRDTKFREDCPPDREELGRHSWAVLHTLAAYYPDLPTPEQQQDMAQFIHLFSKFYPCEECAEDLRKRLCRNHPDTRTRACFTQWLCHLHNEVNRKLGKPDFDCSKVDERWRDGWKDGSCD

These targets were tested with C1=CC=C(C=C1)C2=NC(=C(N2)C3=CC=NC=C3)C4=CC(=C(C=C4)Cl)O (assay: log2 fold change, soluble protein after heating vs DMSO (PISA); higher = thermal stabilisation; K562 cells, 10 uM, 30 min; active = over 0.2 and 3.5 SD of the protein, either way, in both replicates (recomputed)).
Outline: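 Thermal stability values are relative to control samples and come from duplicates. They are expressed as log2 fold changes. For measurement, K562 cells (2×10^6 cells/mL) received 10 μM compound for 30 min, and aliquots were heated for 3 min over 48°C-58°C, pooled, and extracted at 4°C in PBS with 0.5% NP-40. Soluble protein, the supernatant after 21,000xg for 90 min, was quantified by TMTpro 16plex LC-MS/MS with equalised channel sums.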

log2 fold change, inactive:
GGNBP2 (UniProt Q9H3C7) -0.013
GAB1 isoform 2 (UniProt Q13480) -0.009
FPGT (UniProt O14772) 0.013
GALK2 (UniProt Q01415) 0.021
G3BP2 (UniProt Q9UN86) -0.135
GEMIN4 (UniProt P57678) -0.009
FUNDC2 (UniProt Q9BWH2) -0.015
FXN (UniProt Q16595) 0.13
FRRS1 (UniProt Q6ZNA5) 0.039
GGPS1 (UniProt O95749) -0.024
GGH (UniProt Q92820) 0.006
GFPT1 (UniProt Q06210) 0.032
GAPDH (UniProt P04406) 0.069
GCLC (UniProt P48506) -0.025
FUBP1 (UniProt Q96AE4) 0.088
GCHFR (UniProt P30047) -0.04
GART (UniProt C9JZG2) -0.124
GALNT6 (UniProt Q8NCL4) 0.045
FTSJ1 (UniProt Q9UET6) 0.036
G3BP1 (UniProt Q13283) -0.016
GANAB isoform 2 (UniProt Q14697) -0.01
FSCN1 (UniProt Q16658) 0.03
FXR2 (UniProt P51116) -0.11
FUT11 (UniProt Q495W5) 0.008
FYCO1 isoform 4 (UniProt Q9BQS8) 0.012
GFM1 (UniProt Q96RP9) 0.022
GALM (UniProt Q96C23) -0.018
FTH1 (UniProt P02794) -0.046
GGCX (UniProt P38435) 0.138
GGA3 (UniProt Q9NZ52) -0.002
FRG1 (UniProt Q14331) -0.053
GHITM (UniProt Q9H3K2) 0.02
GFER (UniProt P55789) -0.142

Two entries picked at random from those above:
log2 fold change, inactive:
FUNDC2 (UniProt Q9BWH2) -0.015
FYCO1 isoform 4 (UniProt Q9BQS8) 0.012
